From patent publication US20240002393A1, “SUBSTITUTED BENZO[f][l ,2,4JTRIAZOL0[4,3-a][l ,4J[…] GABA A GAMMA! POSITIVE ALLOSTERIC MODULATORS” (Hoffmann-La Roche Inc., priority 2020, published 2024)
At least one compound was matched to its structure with a doubt left.

What was measured:
[1] = biological target: human GABAA α2β2γ1 receptor (Homo sapiens (Human), UniProt P47869+Q8N1C3); experiment: Radioligand binding assay, [3H]RO7239181 competition, γ1-containing GABAA subtypes; conditions: Log[Ki α1β3γ2 (nM)/Ki α2β2γ1 (nM)]
Method: The affinity of compounds at GABAA γ1 subunit-containing receptors was measured by competition for [^3H]RO7239181 (67.3 Ci/mmol; Roche) binding to membranes from HEK293F cells (ThermoFisher R79007) expressing human (transiently transfected) receptors of composition α5β2γ1, α2β2γ1, α1β2γ1.
Harvested pellets from HEK293F cells expressing the different GABAA receptor subtypes were resuspended in Mannitol Buffer pH 7.2-7.4 (Mannitol 0.29M, Triethylamine 10 mM, Acetic acid 10 mM, EDTA 1 mM plus protease inhibitors (20 tablets Complete, Roche Diagnostics Cat. No. 05 056 489 001 per liter)), washed two times and then resuspended at 1:10 to 1:15 dilution in the same buffer. Cell disruption was performed by stirring the suspension in a Parr vessel #4637 at 435 psi for 15 minutes, and then the suspensions were centrifuged at 1000×g for 15 minutes at 4° C. (Beckman Avanti J-HC; rotor JS)-4.2). […] The P2 and P3 protein concentration was determined with the BIORAD Standard assay method with bovine serum albumin as standard and measured on the NANO-Drop 1000. […]
Membrane homogenates were resuspended and polytronised (Polytron PT1200E Kinematica AG) in Potassium Phosphate 10 mM, KCl 100 mM binding buffer at pH 7.4 to a final assay concentration determined with a previous experiment. […]

h-GABA-A α2β2γ1 = h-GABA-A α2β2γ1 (Homo sapiens (Human), UniProt P47869+Q8N1C3); experiment: Two-electrode voltage clamp electrophysiology in Xenopus oocytes expressing GABAA receptors; type: cell-based; conditions: GABA EC20, test compound at about 30-fold its Ki α2β2γ1, at least 3 oocytes
Method: Xenopus laevis oocytes at maturation stages V-VI were used for the expression of cloned mRNA encoding GABAA receptor subunits. Oocytes ready for RNA micro-injection were bought from Ecocyte, Castrop-Rauxel, Germany and stored in modified Barth's medium (composition in mM: NaCl 88, KCl 1, NaHCO3 2.4, HEPES 10, MgSO4 0.82, CaNO3 0.33, CaCl2 0.33, pH=7.5) at 20° C. until the experiment.
Oocytes were plated in 96-well plates for microinjection using the Roboinject automated instrument (MultiChannelSystems, Reutlingen, Germany). Approximately 50 nL of an aqueous solution containing the RNA transcripts for the subunits of the desired GABAA receptor subtype was injected into each oocyte. […]
Electrophysiological experiments were performed using the Roboocyte instrument (MultiChannelSystems, Reutlingen, Germany) on days 3 to 5 after the micro-injection of mRNA. […] Current traces were recorded at a digitization rate of 10 Hz during and shortly before and after the GABA application. […]
For the analysis, the digitized current traces of the first and second GABA response were superimposed and, if necessary, rescaled to equal maximal amplitudes. The ratio between the two responses during the time interval of test compound application was calculated point by point. […]

SMILES: CCc1nnc2n1-c1ccc(C(F)(F)F)c(Cl)c1C(c1c(F)cccc1F)=N[C@H]2C [Example 108, (4S)-7-chloro-6-(2,6-difluorophenyl)-1-ethyl-4-methyl-8-(trifluoromethyl)-4H-[1,2,4]triazolo[4,3-a][1,4]benzodiazepine]
- LogSel [1]: 1.70
- Fold increase h-GABA-A α2β2γ1 oocyte @ 30-fold Ki (h-GABA-A α2β2γ1): 1.94
